From patent publication US20240327871
Where a protein sequence is shown, tags need not be part of it. For some of these results: For at least one entry, the source does not settle the construct or the ends of the probe.

Tests used:
[1] = test system: T1, MG92-3 TnpA-like transposase (MG92-3-A) (metagenomic (uncultivated)); assay: enzyme reaction in vitro; settings: 5 mM MgCl2, 37 C, protein translated in vitro, protein details: C-terminal HA and His tags, PURExpress IVTT, single-stranded DNA
T1 sequence (limits assumed): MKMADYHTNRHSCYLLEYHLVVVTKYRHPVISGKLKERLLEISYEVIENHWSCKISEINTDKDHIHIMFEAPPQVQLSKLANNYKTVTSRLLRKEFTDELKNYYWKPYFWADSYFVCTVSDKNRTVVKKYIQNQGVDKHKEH

[2] = test system: T2, MG92-4 TnpA-like transposase (MG92-4-A) (metagenomic (uncultivated)); assay: enzyme reaction in vitro; settings: RE cleavage and insertion detected by NGS only, weak signal; 5 mM MgCl2, 37 C, 1 h; protein translated in vitro; protein details: C-terminal HA and His tags, PURExpress IVTT; single-stranded DNA
T2 sequence (limits assumed): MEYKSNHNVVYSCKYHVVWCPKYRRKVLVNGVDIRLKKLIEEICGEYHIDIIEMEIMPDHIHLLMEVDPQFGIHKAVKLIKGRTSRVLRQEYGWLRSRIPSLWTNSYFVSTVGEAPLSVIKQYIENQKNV

Sequence: AATGAC [MG92-3 target insertion motif]
- activity on this sequence ([1]; insertion motif identified from target/cargo junction): active

Sequence: CCCAAACCTATACGCTCGGGGACACCGTGTAAGACCTCGCTGGTGCAGGCGGTGGTGGCTGAACCGAGAATCCCCCGGCTTTAGCCGTGGGGAGTGTCAA [MG92-4 RE (transposon right end)]
- activity on this sequence [2]: active

Sequence: GTTTGCGCTGTATCTGTGGTCAGGTATCCACTCCTACCTAAAGTAGCAGGCATGAACGAAAGTTTATGCGGAGTTTGGAAGCCCCGTCTATATTCGCGAAAGCGGATTAGGCGGGGAGGGTTCAC [MG92-3 RE boundary (SEQ ID NO: 476)]
- activity on this sequence ([1]; RE cleavage and insertion by Sanger, 1 h): active

Sequence: TGAAAACAAACATTTTACCAAGGCCCGCAGGCTCCGTCTATAGCGACAAGCGCTAACTTTGGCTACGCTTGTCGTTTAGGCGGGGTTAGT [MG92-3 LE boundary (SEQ ID NO: 475)]
- activity on this sequence ([1]; transposition of LE-Kan-RE ssDNA cargo, LE junction by Sanger and NGS, 20 mM HEPES pH 7.5, 160 mM NaCl, 1 h): active
